Data as given in PubChem BioAssay AID1508588 (Peter MacCallum Cancer Centre, 2020)
Here is a random part of about 18,000 deposited reagents. 790 of all reagents (4.4%) were called active. 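Calls rest on a combination of fold-change classes in drug and vehicle arms, not all shown here.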 Unmarked entries are inactive. No sequences are given here.

Screen: 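Genome-wide search for knock-downs that heighten vemurafenib action in melanoma cells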 (primary screen)
System: human WM266.4 melanoma cells (BRAF V600 mutant)
Reagent: siRNA pool against human genes, 40 nM
Time to read-out: 96 h from transfection to read-out
Challenge: vemurafenib 300 nM (about IC25), added 48 h after transfection, for 48 h; comparison arm got DMSO vehicle only
Measurement: 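Cell gain (DAPI nuclei at end minus before drug, mean of two replicates) and medium lactate by absorbance per cell, both as ratio to non-targeting siRNA, also grouped into fold-change classes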
Direction: cell gain with vemurafenib: higher = more cell gain than with non-targeting siRNA; lactate per cell with vemurafenib: higher = more lactate made per cell
Hit rule: 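Enhancement is called by pairing each knock-down's vehicle-arm and drug-arm fold-change classes for viability or glycolysis; which class combinations qualify is not given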
Calls: active = enhances vemurafenib effect; inactive = no enhancement seen

Which result is listed for IFNA14?
cell gain with vemurafenib: 0.63; lactate per cell with vemurafenib: 0.25

With P2RY10, what does the deposit list?
cell gain with vemurafenib: 0.8; lactate per cell with vemurafenib: 0.84

How did the screen score PKD2L1?
cell gain with vemurafenib: 0.25; lactate per cell with vemurafenib: 2.07

What did the screen give for PHF23?
cell gain with vemurafenib: 0.96; lactate per cell with vemurafenib: 0.74

For TFF3, what does the deposit list?
cell gain with vemurafenib: 0.93; lactate per cell with vemurafenib: 0.8

What did the screen give for USB1?
cell gain with vemurafenib: 0.31; lactate per cell with vemurafenib: 3.37

With ZNF816, what was measured?
cell gain with vemurafenib: 0.95; lactate per cell with vemurafenib: 0.98

What did the screen give for VILL?
cell gain with vemurafenib: -0.18; lactate per cell with vemurafenib: 1.47

With LRRC46, how do the results read?
cell gain with vemurafenib: 0.59; lactate per cell with vemurafenib: 0.34

With DCUN1D2, how do the results read?
cell gain with vemurafenib: 0.87; lactate per cell with vemurafenib: 1.04

With PWP2, what was measured?
cell gain with vemurafenib: 0.26; lactate per cell with vemurafenib: 0.76

What did the screen give for SLC4A10?
cell gain with vemurafenib: 0.65; lactate per cell with vemurafenib: 0.46

With SACK1B, what does the deposit list?
cell gain with vemurafenib: 1; lactate per cell with vemurafenib: 0.84

What is on record for GRIN2D?
cell gain with vemurafenib: 0.48; lactate per cell with vemurafenib: 0.54

Which result is listed for ATP6AP2?
cell gain with vemurafenib: 0.4; lactate per cell with vemurafenib: 0.78

Which result is listed for SMPD4?
cell gain with vemurafenib: 0.55; lactate per cell with vemurafenib: 1.39

Which result is listed for SUCNR1?
cell gain with vemurafenib: 0.7; lactate per cell with vemurafenib: 0.94

For NGEF, what was measured?
cell gain with vemurafenib: 0.56; lactate per cell with vemurafenib: 1.44

With ASPH, how do the results read?
cell gain with vemurafenib: 0.31; lactate per cell with vemurafenib: 2.04

What did the screen give for TMEM14A?
cell gain with vemurafenib: 0.36; lactate per cell with vemurafenib: 0.75

With GRHL1, what was measured?
cell gain with vemurafenib: 0.74; lactate per cell with vemurafenib: 0.64

Which result is listed for PHOX2B?
cell gain with vemurafenib: 1.12; lactate per cell with vemurafenib: 0.57

For ZNF57, what was measured?
cell gain with vemurafenib: 1.06; lactate per cell with vemurafenib: 0.74

Which result is listed for NCOA3?
cell gain with vemurafenib: 0.46; lactate per cell with vemurafenib: 0.45

Laid out differently: results already given
P2RY10
- cell gain with vemurafenib: 0.8
- lactate per cell with vemurafenib: 0.84

PKD2L1
- cell gain with vemurafenib: 0.25
- lactate per cell with vemurafenib: 2.07

PHF23
- cell gain with vemurafenib: 0.96
- lactate per cell with vemurafenib: 0.74

TFF3
- cell gain with vemurafenib: 0.93
- lactate per cell with vemurafenib: 0.8

USB1
- cell gain with vemurafenib: 0.31
- lactate per cell with vemurafenib: 3.37

Further entries follow.
How did the screen score OR1F1?
cell gain with vemurafenib: 0; lactate per cell with vemurafenib: 0.35

For MLX, what was measured?
cell gain with vemurafenib: 0.4; lactate per cell with vemurafenib: 0.8

Which result is listed for CNOT3?
cell gain with vemurafenib: 0.45; lactate per cell with vemurafenib: 1.68

For RBBP4, what was measured?
cell gain with vemurafenib: 0.72; lactate per cell with vemurafenib: 0.34

What did the screen give for GUCA2A?
cell gain with vemurafenib: 0.59; lactate per cell with vemurafenib: 0.6

With BTBD3, what was measured?
cell gain with vemurafenib: 0.99; lactate per cell with vemurafenib: 0.54

What did the screen give for CDC42BPA?
cell gain with vemurafenib: 0.48; lactate per cell with vemurafenib: 1.54

How did the screen score OR2T3?
cell gain with vemurafenib: 0.8; lactate per cell with vemurafenib: 0.92

For PIERCE1, what does the deposit list?
cell gain with vemurafenib: 0.25; lactate per cell with vemurafenib: 1.8

What did the screen give for DHRS13?
cell gain with vemurafenib: 0.69; lactate per cell with vemurafenib: 0.79

Which result is listed for CDH12?
cell gain with vemurafenib: 1.01; lactate per cell with vemurafenib: 0.55

What did the screen give for CD58?
cell gain with vemurafenib: 0.75; lactate per cell with vemurafenib: 1.25

What did the screen give for ADAM12?
cell gain with vemurafenib: 0.72; lactate per cell with vemurafenib: 0.56

For KHDC1, what does the deposit list?
cell gain with vemurafenib: 0.65; lactate per cell with vemurafenib: 1.23

What did the screen give for GMEB2?
cell gain with vemurafenib: 0.37; lactate per cell with vemurafenib: 1.35

What did the screen give for MAN2A1?
cell gain with vemurafenib: 0.28; lactate per cell with vemurafenib: 1.74
